Results as given in paper PMC10759521.
Results are given in words; binding and its absence hold for the method and conditions named. Binding seen in cells or lysates may run through a third protein. Some binding calls cover weakened binding; strength is not graded here.

Biological target: Tumor protein p53 (human (endogenous in A549 and SPC-A1)) (UniProt P04637)
Test: co-IP; A549 or SPC-A1 whole cell lysates, pre-cleared with Protein A/G PLUS-Agarose, immunoprecipitated with anti-p53 antibody (mock IgG as control), collected on Protein A/G PLUS-Agarose overnight at 4 °C, washed three times, western blot of endogenous proteins

binding: binds
Substance: cullin 4 A (from UniProt Q13619 1-759)
